According to PubChem BioAssay AID1347423 (Functional Genomics Laboratory (NCATS/FGL), 2020):
The campaign covered roughly 52,000 sequences. About 210 (0.4%) were called active.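 Rule for the calls: active = gene whose silencing raises cell survival under the drug, median off-target-corrected z-score across its silencing RNAs 2 or more; inactive = the rest.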 This is one part of the list.

experiment: Resistance to Poly (ADP-Ribose) Polymerase inhibitor: Gene Identification via Genome-wide siRNA Screen; details: mouse BRCA2 R2336H ES cells, olaparib, CellTiter-Glo viability; active compounds read high
How it was run: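 Mouse BRCA2 R2336H ES cells were reverse-transfected with siRNA (20 nM final), treated at 48 h with 500 nM olaparib, and read by CellTiter-Glo after 72 h. Scores: MAD-based z per siRNA, median per gene, seed off-target correction.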

Sequence | z-score
GUGGACUUUUAGCAAUCAGTT against Olfr98 | inactive: 1.04
CCAGGUGUUUGAUGCAUUCTT against LOC436240 | inactive: -1.2
GCUAGAGACUGUUUGCACGTT against 4432406C08Rik | inactive: 0.531
CCAAAGGGAAGAGUUAUGCTT against 1110001A23Rik | inactive: -1.17
CCUACACAAAAUCACUUUGTT against 4921536I21Rik | inactive: -0.568
GGAAAAUCAAGUGCAAACUTT against Fgfr1op | inactive: 0.229
GGCUCUGAGACACAUCUACTT against Cpt1b | inactive: 0.378
GGUCUUCAAAGACAUCAGCTT against F11 | inactive: 0.251
GCUCAAGGUCUCAUUUUUATT against Il18bp | inactive: -0.0178
GGAAACCUACCGUUACCUATT against Kcnj5 | inactive: 1.23
GGUUCCUGAACAUCCUUUUTT against Hyal3 | inactive: 0.232
GGAUCACCACUACUUUAAATT against Cops5 | inactive: -1.1
GGUCAGAAUGAAUUCAGUUTT against Il10rb | inactive: -1.37
GGACAUGGGUGAUAAAGUUTT against 9330129D05Rik | inactive: 0.289
GGUCUUCUUUGAUGUGAGGTT against Ppic | inactive: 0.259
CCCUCAUUUACUCUAGUAATT against Defb12 | inactive: -0.297
GCAAUUGAAAGCUUCGCCCTT against Mcf2l | inactive: -0.459
GGACUUUUUAUACUGUGGATT against 2-Sep | inactive: -0.863
GGUGCUUUGCUCUUUCUUGTT against 9130413I22Rik | inactive: 0.0478
GGCCUGUUUUGUGAACUGCTT against Timm8a | inactive: 0.0999
GGGAUUUUUGAAACUGAAGTT against 2700085E05Rik | inactive: -0.791
GCCUGAUAUCAACAUAGGATT against Pthr2 | inactive: 0.11

Sequence | z-score
GGACCAGAACCGUUACUUATT against Bet1l | inactive: 1
GGCUAGGACCUAUACCAUUTT against Aprt | inactive: 1.26
CCUUCUUGCUUCAGAGCAGTT against Slc34a3 | inactive: 1.85
GGAUGAAGCAUUUAUUCCATT against Bmpr1a | inactive: 1.1
GGCAAUUUGCUGUUUCAUATT against Siat7e | inactive: 0.037
GGGAAUCUGGCCAUACUAGTT against 1700022I11Rik | inactive: -1.1
CCUUUUGUUAGUGAGUUAGTT against Ywhag | inactive: -0.0098
CCAUCUGGACUUCAGUUUUTT against Garnl4 | inactive: -0.0858
GCAACACACUGCUUCCUGGTT against Tmem19 | inactive: 0.396
GGCUGUUUACACGUUAGUGTT against Diablo | inactive: -0.14
GGCCUUUUACUGUUCUGUGTT against 6820416H06Rik | inactive: -0.607
GCCUGUUAUUCAACAUUCUTT against Diap2 | inactive: 0.214
GCUUAGACAACGACAUUUCTT against Mcoln3 | inactive: 0.243
GGAGAGAGAAUUUCACCUCTT against Wdr40a | inactive: 1.32
GGCGGAAGAGAAAGACAGCTT against Tle3 | inactive: -0.998
GGUAUUAUGGCUGUGGUCUTT against As3mt | inactive: 1.67
GCUUUAGGUCCAAUAAAAUTT against Wdr53 | inactive: -0.146
GCAACUCUAGUGUAUGGGATT against Slc39a4 | inactive: -1.38
GGGUUUUCAAAGACAAGAUTT against 4930488L10Rik | inactive: 0.786
CCCUUAAAGGGUAGCAUUUTT against Cspg3 | inactive: -0.307
GGCAAUGAAUUUAACAAUCTT against C330011K17Rik | inactive: 0.654
GCCCGAAAAAGAGAACUGATT against Wbp11 | inactive: -2.08

Sequence | z-score
GCUUGGCUUCAGCAUAUGCTT against Phox2b | inactive: -0.611
GGUGGAAUUUUCAACUUACTT against Nkx3-1 | inactive: 0.268
GCCAGUUGAAGGUGAUUAATT against V1rc12 | inactive: -1.69
GGAUCCAGUCUAAUAAGAATT against Abcb1a | inactive: -0.9
GGGAGCUUUGAAGAGGCUGTT against Olfr130 | inactive: -1.11
GGUAUCAUCUAUAGAGACUTT against Prkch | inactive: 1.86
CUUUGUCAGCCAUGUAUCCTT against Tas2r104 | inactive: 0.183
CCAGAUUCUAAUACGUACATT against Sec63 | inactive: 0.369
GGCUAAAAUAAAGAAGAAGTT against C230069K22Rik | inactive: -1.06
GGACAAGGCAGUGUUUCCATT against Sost | inactive: -1.31
GGGAGCAGAUUUUAAGAGUTT against Rala | inactive: -0.796
CCAGUGUUUACUCAAACAGTT against Snai2 | inactive: -0.0271
GCUUUUGACGAGCAAGCAGTT against 6820428D13 | inactive: 0.0297
GGGUGACCCAGAAGAAAUCTT against Gcnt1 | inactive: 2.01
GCCUCAUCGUCAUCGCCAATT against Gpbar1 | inactive: 2.66
GGCUCUAUAUCCAGCAGCATT against Srst | inactive: 0.104
CCUGGAUUUUUCCAAACAATT against 2310016E02Rik | inactive: -0.791
CGAACAUGUACAACAAAGATT against Cacna2d3 | inactive: -0.0599
GCCAUCAACCAAAACAUCCTT against MGC118250 | inactive: 1.2
GGUGACAGAUGUUUAUGAGTT against 1810010N17Rik | inactive: 0.414
GGCGGAAAAAAAAGUAAUATT against Zf | inactive: -1.08
GAUCCAGGAUAAAGAGGGCTT against Ubb | inactive: -2.05

Quoted at random: two records from the list.
Sequence | z-score
GCCUCAUCGUCAUCGCCAATT against Gpbar1 | inactive: 2.66
GCCAUCAACCAAAACAUCCTT against MGC118250 | inactive: 1.2
